# Test results reported in PubChem BioAssay AID540256 (National Center for Advancing Translational Sciences (NCATS), 2011).
# Values joined by “and” are separate entries in the source; they are usually repeats but may differ in a detail not shown here. Equal values may be shown once. The campaign covered roughly 300,000 compounds. About 3,700 (1.2%) were called active. The inconclusive results got no clear call from the source; some entries with a clear call stand among them for comparison. The call rests on the fitted dose curve; tested in HEK293 cells. Potencies beside an inconclusive call are fits to weak or partial responses and may not hold up.
# Assay: qHTS for Inhibitors of binding or entry into cells for Lassa Virus; further: nearly all actives have a fitted effect of over 50% in size
# Settings: Lassa virus pseudotype entry inhibition, cell reporter; activity change, negative = inhibition: at 37.9 µM (top of the series) unless noted
# On the % scale 0 is the no-effect control and ±100 the full control effect; potency means the concentration at half of the fitted maximal effect.
Compound,Potency,"activity change, negative = inhibition"
COC(=O)c1ccc(C(NC(=O)OCc2ccccc2)/C(C)=C/[C@@H](C)C(=O)NCc2ccc(-c3ccccc3)cc2)cc1 (stereo not given in full),"inconclusive: 2.06 µM [inhibitor, partial curve, poor fit]",–
Cc1ccc(NC(=O)COc2coc(CN3CCN(c4ccccc4)CC3)cc2=O)cc1,inactive,–
COc1ccc(-c2nn(-c3ccccc3)cc2/C=C/C(=O)NCCCn2ccnc2)cc1OC,"inconclusive: 35.5 µM [inhibitor, single point]",–
COC(=O)c1ccc(COC(=O)c2ccc(CO)cc2)o1,"inconclusive: 20.6 µM [inhibitor, partial curve, poor fit]",–
COc1ccc(S(=O)(=O)N2CCOCC2)cc1NC(=O)c1ccc2c(c1)OCCO2,"inconclusive: 0.794 µM [inhibitor, full curve, poor fit]",–
Cc1ccccc1C(=O)Nc1nc2nc(C)c(C)c(=O)n2[nH]1,"inconclusive: 6.31 µM [activator, single point]",–
O=C(NN=C1C[C@@H](O)[C@H](O)[C@H]2[C@@H]3C(=O)N(C[C@@H]4CCCO4)C(=O)[C@@H]3CC[C@@H]12)OCc1ccccc1,"inconclusive: 4.73 µM [inhibitor, partial curve, poor fit]",–
CCc1ccc2oc(-c3cccc(NC(=O)c4cc5ccccc5o4)c3)nc2c1,inactive,–
O=C(NC(=S)Nc1cccc([N+](=O)[O-])c1)c1ccco1,inactive,–
COc1ccc(NC(=O)C(=O)NCC2CCCN2S(=O)(=O)c2cccs2)cc1 (stereo not given),"inconclusive: 1.12 µM [inhibitor, full curve, poor fit]",–
CCOc1ccc(NC(=O)c2sc3nc4c(cc3c2N)CN(Cc2ccccc2)CC4)cc1,inactive,–
O=C(O)CC1(CC(=O)Nc2nccs2)CCCCC1,inactive,–
Cc1ccc(-n2nc(C(=O)Nc3ccc(Br)cc3C)c(=O)n(C)c2=O)cc1,inactive,–
CC1CCN(S(=O)(=O)c2ccc(C(=O)Nc3ccccc3-c3nc4ccccc4[nH]3)cc2)CC1,"inconclusive: 35.5 µM [inhibitor, single point]",–
CCOc1ccc(NC(=O)N2CCC(c3ccc(C)cc3)C2)cc1 (stereo not given),inactive,–
Cc1ccc2oc(-c3cccc(NC(=S)NC(=O)c4cccs4)c3)nc2c1,"inconclusive: 15.8 µM [activator, single point]",–
Cc1oc(-c2ccccc2)cc1C(=O)Nc1cccc2ccccc12,"inconclusive: 0.562 µM [activator, full curve]",–
COC(=O)c1cc(NCc2cccs2)ccc1N1CCOCC1,"inconclusive: 0.058 µM [inhibitor, full curve, poor fit]",–
CCOC(=O)N1CCN(S(=O)(=O)c2ccc(C(=O)N(CCN(CC)CC)c3nc4c(C)cccc4s3)cc2)CC1,inactive,–
COc1ccccc1N(Cc1ccccc1)S(=O)(=O)c1cccc(C(=O)Nc2cc(C)ccn2)c1,"inconclusive: 0.562 µM [inhibitor, full curve, poor fit]",–
O=C(CCCCC(=O)NN=Cc1ccccc1O)NN=Cc1ccccc1O,"inconclusive: 3.55 µM [inhibitor, single point]",–
CCOCc1nnc(NC(=O)CSc2ccccc2)s1,inactive,–

# A draw from above in order of length of the SMILES, largest number first:
Compound,Potency,"activity change, negative = inhibition"
CC1CCN(S(=O)(=O)c2ccc(C(=O)Nc3ccccc3-c3nc4ccccc4[nH]3)cc2)CC1,"inconclusive: 35.5 µM [inhibitor, single point]",–
Cc1ccccc1C(=O)Nc1nc2nc(C)c(C)c(=O)n2[nH]1,"inconclusive: 6.31 µM [activator, single point]",–
O=C(CCCCC(=O)NN=Cc1ccccc1O)NN=Cc1ccccc1O,"inconclusive: 3.55 µM [inhibitor, single point]",–

# Next part.

Compound,Potency,"activity change, negative = inhibition"
CCOC(=O)C1=C(CSc2nc3ccccc3s2)NC(=O)NC1c1cc(C)ccc1C (stereo not given),"inconclusive: 13 µM [inhibitor, partial curve]",–
Cc1nc(-c2ccc(NC(=O)Cc3ccccc3)cc2)cs1,"inconclusive: 6.31 µM [activator, full curve, poor fit]",–
N/C(=N\OC(=O)Cc1ccc(Cl)cc1)c1cccnc1,inactive,–
O=C(C1CCCN(S(=O)(=O)c2ccc(Cl)cc2)C1)N(Cc1cccs1)C1CC1 (stereo not given),inactive,–
CC(C)(C)NC(=O)Cn1c(SCC(=O)NC2CCCC2)nc2ccccc21,inactive,–
CCc1cc(-c2[nH]ncc2-c2ccc3c(c2)OCO3)c(O)cc1O,"inconclusive: 32.6 µM [inhibitor, single point]",–
O=C(Nc1ccnn1C1CCN(C(=O)CCc2ccc(F)cc2)CC1)C1CCOC1 (stereo not given),"inconclusive: 1.12 µM [activator, full curve, poor fit]",–
COc1cccc([C@@H]2[C@H](C)C[C@H]3CC(=O)N4[C@H](CC(=O)N32)C[C@@H](C)[C@@H]4c2cccc(OC)c2)c1,"inconclusive: 0.106 µM [inhibitor, full curve, poor fit]",–
CCOc1ccc(CCNC(=O)c2cc(C)nc3ccccc23)cc1OCC,inactive,–
CCCN(CC(=O)Nc1ccc(Cl)cc1Cl)C(=O)/C=C/c1ccco1,"inconclusive: 22.4 µM [inhibitor, partial curve, poor fit]",–
Cc1ccc2nc(-c3ccc(NC(=S)NC4CC(C)(C)NC(C)(C)C4)cc3)sc2c1,"inconclusive: 35.5 µM [inhibitor, single point]",–
Cc1ccc(S(=O)(=O)N2CCN(CC(O)c3ccccc3)CC2)cc1C (stereo not given),"inconclusive: 35.5 µM [inhibitor, single point]",–
COCCn1c(-c2ccc(NC(C)=O)cc2)nc2c1c(=O)[nH]c(=O)n2CC(C)C,"inconclusive: 2.31 µM [inhibitor, full curve]",–
CCN1CCN(c2ccc(S(=O)(=O)N3CCCCC3)cc2NC(=O)/C=C/c2cccc(OC)c2OC)CC1,"inconclusive: 22.4 µM [inhibitor, single point]",–
CCn1cc(/C=C(\NC(=O)c2ccccc2Cl)C(=O)N2CCN(C)CC2)c2ccccc21,"inconclusive: 11.2 µM [inhibitor, partial curve]",–
O=C1CC(c2cccc(Cl)c2Cl)c2cc3c(cc2N1)OCCO3 (stereo not given),inactive,–
COc1cc(OC)c(NC(=O)Cn2c(SCc3ccccc3F)nc3cccnc32)cc1Cl,inactive,–
Cc1ccccc1Cn1nc(C)c(NC(=O)c2cc(CC(C)C)on2)c1C,"inconclusive: 35.5 µM [inhibitor, single point]",–
Cc1cc(C(=O)COC(=O)Cc2n[nH]c(=O)c3ccccc23)c(C)n1-c1ccc2c(c1)OCCO2,inactive,–
O=C(COC(=O)c1cc(S(=O)(=O)N2CCCCC2)ccc1N1CCOCC1)c1ccc(Cl)cc1,"inconclusive: 5.01 µM [inhibitor, full curve]",–
CN(C)c1ccc(/C=N/NC(=O)C2COc3ccccc3O2)o1 (stereo not given),inactive,–
Cc1ccc(S(=O)(=O)Nc2cc(C(=O)O)ccc2N2CCCCC2)cc1,"inconclusive: 16.4 µM [activator, single point]",–

Compound,Potency,"activity change, negative = inhibition"
CCOC(=O)c1ccccc1NC(=O)NCc1cccn1Cc1ccc(F)cc1,"inconclusive: 25.1 µM [inhibitor, partial curve]",–
CCC(=O)OC1CSc2nc3ccccc3n2C1 (stereo not given),"inconclusive: 6.51 µM [inhibitor, single point]",–
COc1ccc(OC)c(NC(=O)CCn2cccn2)c1,–,inconclusive: 31.2% [activator] [at 46.1 µM]
Cc1ccc(CNC(=O)NC23CC4CC(CC(C4)C2)C3)cc1,"inconclusive: 22.4 µM [inhibitor, single point]",–
CCCn1c2ccccc2c2cnn(CC(=O)NCc3ccc(OC)cc3)c(=O)c21,inactive,–
Cc1oc(-c2ccc(C(=O)NCc3ccccc3F)cc2)nc1COc1ccccc1,"inconclusive: 12.6 µM [inhibitor, partial curve, poor fit]",–
O=C1C(=NO)CCc2ccccc21,"inconclusive: 15.8 µM [inhibitor, single point]",–
NNC(=O)CSc1cccc2cccnc12,"inconclusive: 0.291 µM [inhibitor, full curve, poor fit]",–
COc1ccccc1NC(=O)CN1CCN(c2ccccc2F)CC1,"inconclusive: 11.2 µM [inhibitor, partial curve, poor fit]",–
COc1ccc(CNc2ccc(S(N)(=O)=O)cc2)c(OC)c1OC,inactive,–
N#Cc1c(NC(=O)CCn2cnc3ccccc3c2=O)oc(-c2ccccc2)c1-c1ccccc1,"inconclusive: 8.91 µM [inhibitor, partial curve, poor fit]",–
CCN(CC)c1ccc(NC(=O)CN2CCN(S(=O)(=O)c3cc(Cl)ccc3OC)CC2)cc1,"inconclusive: 14.6 µM [inhibitor, single point] and inconclusive: 39.8 µM [inhibitor, partial curve, poor fit]",–
Cc1nc(-c2coc3cc(C)c(N=O)c(O)c3/c2=N\N)cs1,"inconclusive: 35.5 µM [activator, single point]",–
COc1ccc(NC(=O)CSc2nc(-c3ccccc3)[nH]c2-c2ccccc2)cc1OC,"inconclusive: 8.91 µM [inhibitor, full curve, poor fit]",–
C#CC(=O)N(c1cc(OC)ccc1OC)C(C(=O)NC1CCCC1)c1cccs1 (stereo not given),active: 3.55 µM,–
O=C(Nc1cccc(S(=O)(=O)N2CCCCC2)c1)c1ccccn1,inactive,–
COc1ccc(-n2cccc2/C=C/[N+](=O)[O-])cc1,"inconclusive: 20.6 µM [inhibitor, single point]",–
COC(=O)C(C)Sc1nc2c(cnn2-c2ccc(Cl)cc2)c(=O)[nH]1 (stereo not given),"inconclusive: 8.91 µM [activator, partial curve, poor fit]",–
CCNC(=O)c1ccc(C23CC4CC(CC(C4)C2)C3)o1,"inconclusive: 0.355 µM [inhibitor, full curve, poor fit]",–
CCOC(=O)c1ccc(NC2=CC(=O)C(=O)c3ccccc32)cc1,"inconclusive: 35.5 µM [inhibitor, single point]",–
CCOC(=O)c1ccc(NC(=O)CC2S/C(=N/N=C3/NC(=O)CS3)NC2=O)cc1 (stereo not given),"inconclusive: 6.31 µM [inhibitor, single point]",–
